This is an account of results in PMC4543939.

The chains behind the UniProt entries cited, without tags or fusion partners.
UniProt O46674: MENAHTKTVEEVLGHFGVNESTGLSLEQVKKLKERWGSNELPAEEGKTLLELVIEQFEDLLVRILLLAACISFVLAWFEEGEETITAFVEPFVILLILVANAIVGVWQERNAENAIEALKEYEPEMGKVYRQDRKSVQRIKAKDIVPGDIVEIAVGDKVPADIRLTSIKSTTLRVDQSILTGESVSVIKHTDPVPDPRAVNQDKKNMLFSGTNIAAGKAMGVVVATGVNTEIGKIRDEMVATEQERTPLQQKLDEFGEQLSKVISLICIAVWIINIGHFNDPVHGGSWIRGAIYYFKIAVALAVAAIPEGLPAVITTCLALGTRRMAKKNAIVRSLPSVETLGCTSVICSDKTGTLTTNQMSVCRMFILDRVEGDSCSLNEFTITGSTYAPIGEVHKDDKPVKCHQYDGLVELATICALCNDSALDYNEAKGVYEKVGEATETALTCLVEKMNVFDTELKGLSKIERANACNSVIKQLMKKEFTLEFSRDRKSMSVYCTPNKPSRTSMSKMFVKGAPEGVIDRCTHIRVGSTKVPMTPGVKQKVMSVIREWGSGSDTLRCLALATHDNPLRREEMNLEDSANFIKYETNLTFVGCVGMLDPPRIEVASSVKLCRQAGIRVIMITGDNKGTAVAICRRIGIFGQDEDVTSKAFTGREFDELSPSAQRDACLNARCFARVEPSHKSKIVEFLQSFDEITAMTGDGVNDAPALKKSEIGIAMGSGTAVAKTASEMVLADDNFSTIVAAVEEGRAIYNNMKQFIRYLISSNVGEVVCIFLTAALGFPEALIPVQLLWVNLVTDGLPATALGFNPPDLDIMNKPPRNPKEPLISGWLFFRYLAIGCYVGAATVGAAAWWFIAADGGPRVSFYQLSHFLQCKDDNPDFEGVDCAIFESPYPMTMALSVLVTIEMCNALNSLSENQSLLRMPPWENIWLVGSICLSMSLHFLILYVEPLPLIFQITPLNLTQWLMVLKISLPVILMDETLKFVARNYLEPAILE

In this test the target is Cer-SERCA: canine SERCA2a fused at its N-terminus with mCerulean (canine) (UniProt O46674). The test is described as follows: FRET or BRET; in-cell binding assay, acceptor sensitization FRET in living AAV-293 cells co-transfected with Cer-SERCA and YFP-PLN-WT (1:20); FRET against relative protein concentration cell by cell, hyperbolic fit; apparent KD2 of the PLN-SERCA complex; with or without 1 uM 50-mer ssDNA.

No constants are given. Whether binding was seen depends on the method and setting. In cells and extracts the contact can be indirect. Some binding calls cover weakened binding; strength is not graded here. Where a sequence is shown, tags or fusion partners need not be part of it.

B1: YFP-PLN-WT: canine phospholamban fused at its N-terminus with enhanced yellow fluorescent protein (protein, UniProt P61012 1-52)
chain: MDKVQYLTRSAIRRASTIEMPQQARQNLQNLFINFCLILICLLLICIIVMLL
Take B1: the binding entry is on record as “binds”.
